Source: US20060210568A1, “Methods and compositions for cancer treatment” (priority 2003, published 2006)
At least one compound was matched to its structure with a doubt left.

Assays:
[1] = system: HL-60 promyelocytic leukemia; conditions: cited from earlier work
PPAR gamma = target: T1, PPAR gamma (Homo sapiens, UniProt P37231); test: PPRE luciferase reporter gene assay of PPAR gamma activity in MCF-7 cells; type: cell-based; conditions: MCF-7 cells treated with ciglitazone
T1 construct: MCF-7 cells treated with human ADRP-siRNA and ciglitazone were transfected with 1 micrograms of PPRE reporter gene construct; endogenous in cells; host or cells: MCF-7
T1 sequence (P37231 1-505): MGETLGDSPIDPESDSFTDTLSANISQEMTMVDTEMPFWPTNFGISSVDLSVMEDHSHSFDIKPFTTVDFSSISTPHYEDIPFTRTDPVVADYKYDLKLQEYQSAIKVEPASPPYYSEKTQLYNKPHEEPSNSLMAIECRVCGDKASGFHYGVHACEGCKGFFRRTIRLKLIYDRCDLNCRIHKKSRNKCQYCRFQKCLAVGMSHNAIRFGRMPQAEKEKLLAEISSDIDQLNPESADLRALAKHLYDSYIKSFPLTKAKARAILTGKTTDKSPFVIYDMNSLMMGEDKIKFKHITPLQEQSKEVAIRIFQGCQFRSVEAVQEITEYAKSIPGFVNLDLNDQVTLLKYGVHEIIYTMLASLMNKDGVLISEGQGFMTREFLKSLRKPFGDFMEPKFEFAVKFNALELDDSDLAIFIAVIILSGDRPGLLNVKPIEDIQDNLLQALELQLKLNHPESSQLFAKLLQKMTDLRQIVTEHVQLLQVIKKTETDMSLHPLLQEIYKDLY

[2] = system: beta casein expression in MCF-7 cells; test: beta casein expression by RT-PCR as marker of breast cancer cell differentiation; type: cell-based, human; conditions: ciglitazone 50 μM, control MCF-7 cells, FIG. 3A
Text: We then explored whether growth inhibition of cells overexpressing ADRP was accompanied by stimulated differentiation of the cells. In order to investigate this possibility, we measured the expression of markers of differentiation such as beta casein in the ADRP expressing cells when compared to EV cells. Beta casein is routinely used as a marker of mammary epithelial cell differentiation. We show by RT-PCR that the ADRP overexpressing cells express high level of casein mRNA. In contrast, the control cells had no detectable level of the gene product (see FIG. 3A). In FIG. 3A, GAPDH (Glyceraldehyde-3-phosphate dehydrogenase) loading was used as an internal control for equal sample mRNA expression. […] Measurement of Beta casein expression as marker of breast cancer cell differentiation was by RT-PCR as described above.

[3] = system: ADRP expression in MCF-7 cells; test: ADRP expression in MCF-7 cells (RT-PCR); type: cell-based, human; conditions: ciglitazone 50 μM, control MCF-7 (MCF-EV) cells, FIG. 3B
Text: Ciglitazone is known to bind and activate the nuclear receptor PPAR gamma, which has been shown in MCF-7 to stimulate expression of beta casein (Mueller et al., 1998).
It is known that estradiol plays a dual role in mammary epithelial cells as a stimulator of proliferation and also as a differentiation factor at different times of the developmental stages of mammary gland development (Kumar et al, 2000).
A specific siRNA against human ADRP mRNA (hADRP-siRNA) was designed using the sequence between +225 to +244 of human ADRP as a target. A control siRNA was designed using a portion of the green fluorescence protein gene. Twenty-one-oligonucleotide RNA for hADRP (rArUrU rGrCrA rGrUrU rGrCrC rArArU rArCrC rUTT and rArGrG rUrArU rUrGrG rCrArA rCrUrG rCrArA rUTT) with 3′dTdT overhangs, and for GFP (rGrGrC rUrArC rGrUrC rCrArG rGrArG rCrGrC rArCrC and rUrGrC rGrCrU rCrCrU rGrGrA rCrGrU rArGrC rCrUrU) were synthesized (Integrated DNA Technologies, Inc., Coralville, Iowa). Transfection of siRNA duplex was performed in MCF-7 cells using LipofectAMINE 2000 reagents as described by the manufacturer (Invitrogen, Carlsbad, Calif.). MCF-7 EV grown to 50% confluency in 6-well plates were transfected with 100 pmole of siRNA per well in serum free-DMEM/F12. After 5 h, the medium was replaced with DMEM/F12 containing 5% FBS. Control MCF-7 cells were treated with GFP siRNA. […]

SMILES | differentiation of HL-60 cells [1] | PPRE activity (PPAR gamma activity) (PPAR gamma) | casein expression (differentiation marker) [2] | ADRP expression [3] | ADRP expression ([3]; listed as Ciglitazone)
CC1=C(/C=C/C(C)=C/C=C/C(C)=C/C(=O)O)C(C)(C)CCC1 [retinoic acid] | differentiate into polymorphonuclear leukocytes |  |  |  | 
CC1(COc2ccc(CC3SC(=O)NC3=O)cc2)CCCCC1 (centres unmarked) [ciglitazone] |  | Increase in PPRE Activity | stimulates casein expression | stimulates | stimulates ADRP expression
